The values that follow come from patent US5902815A, “Use of 5HT-2A serotonin agonists to prevent adverse effects of NMDA receptor hypofunction” (priority 1996, dated 1999).

The experiment has as its system NMDA antagonist toxic side effects. Put plainly: Safener drugs against NMDA antagonist toxic side effects (earlier findings). Format: in vivo. The settings on record: Applicants' discovery, no data given.

`CN1[C@@H]2C[C@@H](OC(=O)[C@H](CO)c3ccccc3)C[C@H]1[C@@H]1O[C@@H]12` [scopolamine]: the “prevention of NMDA antagonist toxic side effects” value was “prevent NMDA antagonists from causing toxic side effects”.
